These results are taken from the supplement of paper PMC8326762, “A Small Molecule Inhibitor of Pex3–Pex19 Interaction Disrupts Glycosome Biogenesis and Causes Lethality in Trypanosoma brucei” (Frontiers in Cell and Developmental Biology, 2021).

Structures can show the parent of a compound that is named as a salt. The list shows a part of the results. The data scatter; read single values as rough.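 Optical density at 600 nm measured yeast growth. Because the two-hybrid strains grew without histidine, growth required Pex3–Pex19 binding. Trypanosome selectivity meant a compound inhibited the trypanosome-pair strain's growth by more than 65% but the human-pair strain's by less than 65%.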

The test has as its system T. brucei Pex3-Pex19 interaction (yeast two-hybrid). Description: growth inhibition of yeast two-hybrid strain reporting TbPex3-TbPex19 interaction, relative to DMSO; higher = stronger inhibition of T. brucei Pex3-Pex19 interaction / growth. Conditions: 100 µM; 24 h.
As for `CCCN[C@H]1CCc2nc(N)sc2C1` [Pramipexole dihydrochloride], the growth inhibition amounted to 59.9%. Next, `O=c1c2ccccc2[nH]c(=S)n1CCN1CCC(=C(c2ccc(F)cc2)c2ccc(F)cc2)CC1` [Diacylglycerol Kinase Inhibitor II]: 71.1%. The same measure for `C=CCNc1ncnc2ccc(Br)cc12`: 67.6%; for `COCC(=O)O[C@]1(CCN(C)CCCc2nc3ccccc3[nH]2)CCc2cc(F)ccc2[C@@H]1C(C)C` [Mibefradil dihydrochloride]: 61.1%. `COc1ccccc1N1CCN(CCCNc2cc(=O)n(C)c(=O)n2C)CC1` [Urapidil hydrochloride] returned a growth inhibition of 66.6%. The same measure for `C[N+](C)(C)CCCCCC[N+](C)(C)C` [Hexamethonium dichloride]: 69.1%. Next, `O=[N+]([O-])c1ccc(-c2nc(-c3ccc(F)cc3)c(-c3ccncc3)[nH]2)cc1`: 2.34%. `CCN(CC)CCCCCCCCOC(=O)c1cc(OC)c(OC)c(OC)c1` [TMB-8 hydrochloride] gave a growth inhibition of 65.4%. Next, `CCOC(=O)C1=C(C)NC(C)=C(C(=O)OC)C1c1cccc(Cl)c1Cl` (centres undefined) [Felodipine]: 66.6%; `Oc1ncnc2[nH]ncc12` [Allopurinol]: 70.6%; `Brc1ccc([C@H]2CN3CCSC3=N2)cc1` [S(-)-p-Bromotetramisole oxalate]: 54.9%. Consider `Oc1cc2c(cc1O)C(c1ccccc1)CNCC2` (racemic), for which the growth inhibition worked out at 59%. Next, `CCN(CC)C(=S)SSC(=S)N(CC)CC` [Tetraethylthiuram disulfide]: 83.6%. Next, `CN(C)c1cc2c(Nc3ccc4c(cnn4Cc4ccccc4)c3)ncnc2cn1`: 53.5%.
